Data from publication PMC6890460.
Results are given in words; binding and its absence hold for the method and conditions named. In cells and extracts the contact can be indirect. Some entries that bind do so weakly or less than the wild type. Values belong to the molecule of their own block, whether it stands above or below them.

Protein sequences, listed by entry. Tags and fused reporters are not part of them.
UniProt Q14980: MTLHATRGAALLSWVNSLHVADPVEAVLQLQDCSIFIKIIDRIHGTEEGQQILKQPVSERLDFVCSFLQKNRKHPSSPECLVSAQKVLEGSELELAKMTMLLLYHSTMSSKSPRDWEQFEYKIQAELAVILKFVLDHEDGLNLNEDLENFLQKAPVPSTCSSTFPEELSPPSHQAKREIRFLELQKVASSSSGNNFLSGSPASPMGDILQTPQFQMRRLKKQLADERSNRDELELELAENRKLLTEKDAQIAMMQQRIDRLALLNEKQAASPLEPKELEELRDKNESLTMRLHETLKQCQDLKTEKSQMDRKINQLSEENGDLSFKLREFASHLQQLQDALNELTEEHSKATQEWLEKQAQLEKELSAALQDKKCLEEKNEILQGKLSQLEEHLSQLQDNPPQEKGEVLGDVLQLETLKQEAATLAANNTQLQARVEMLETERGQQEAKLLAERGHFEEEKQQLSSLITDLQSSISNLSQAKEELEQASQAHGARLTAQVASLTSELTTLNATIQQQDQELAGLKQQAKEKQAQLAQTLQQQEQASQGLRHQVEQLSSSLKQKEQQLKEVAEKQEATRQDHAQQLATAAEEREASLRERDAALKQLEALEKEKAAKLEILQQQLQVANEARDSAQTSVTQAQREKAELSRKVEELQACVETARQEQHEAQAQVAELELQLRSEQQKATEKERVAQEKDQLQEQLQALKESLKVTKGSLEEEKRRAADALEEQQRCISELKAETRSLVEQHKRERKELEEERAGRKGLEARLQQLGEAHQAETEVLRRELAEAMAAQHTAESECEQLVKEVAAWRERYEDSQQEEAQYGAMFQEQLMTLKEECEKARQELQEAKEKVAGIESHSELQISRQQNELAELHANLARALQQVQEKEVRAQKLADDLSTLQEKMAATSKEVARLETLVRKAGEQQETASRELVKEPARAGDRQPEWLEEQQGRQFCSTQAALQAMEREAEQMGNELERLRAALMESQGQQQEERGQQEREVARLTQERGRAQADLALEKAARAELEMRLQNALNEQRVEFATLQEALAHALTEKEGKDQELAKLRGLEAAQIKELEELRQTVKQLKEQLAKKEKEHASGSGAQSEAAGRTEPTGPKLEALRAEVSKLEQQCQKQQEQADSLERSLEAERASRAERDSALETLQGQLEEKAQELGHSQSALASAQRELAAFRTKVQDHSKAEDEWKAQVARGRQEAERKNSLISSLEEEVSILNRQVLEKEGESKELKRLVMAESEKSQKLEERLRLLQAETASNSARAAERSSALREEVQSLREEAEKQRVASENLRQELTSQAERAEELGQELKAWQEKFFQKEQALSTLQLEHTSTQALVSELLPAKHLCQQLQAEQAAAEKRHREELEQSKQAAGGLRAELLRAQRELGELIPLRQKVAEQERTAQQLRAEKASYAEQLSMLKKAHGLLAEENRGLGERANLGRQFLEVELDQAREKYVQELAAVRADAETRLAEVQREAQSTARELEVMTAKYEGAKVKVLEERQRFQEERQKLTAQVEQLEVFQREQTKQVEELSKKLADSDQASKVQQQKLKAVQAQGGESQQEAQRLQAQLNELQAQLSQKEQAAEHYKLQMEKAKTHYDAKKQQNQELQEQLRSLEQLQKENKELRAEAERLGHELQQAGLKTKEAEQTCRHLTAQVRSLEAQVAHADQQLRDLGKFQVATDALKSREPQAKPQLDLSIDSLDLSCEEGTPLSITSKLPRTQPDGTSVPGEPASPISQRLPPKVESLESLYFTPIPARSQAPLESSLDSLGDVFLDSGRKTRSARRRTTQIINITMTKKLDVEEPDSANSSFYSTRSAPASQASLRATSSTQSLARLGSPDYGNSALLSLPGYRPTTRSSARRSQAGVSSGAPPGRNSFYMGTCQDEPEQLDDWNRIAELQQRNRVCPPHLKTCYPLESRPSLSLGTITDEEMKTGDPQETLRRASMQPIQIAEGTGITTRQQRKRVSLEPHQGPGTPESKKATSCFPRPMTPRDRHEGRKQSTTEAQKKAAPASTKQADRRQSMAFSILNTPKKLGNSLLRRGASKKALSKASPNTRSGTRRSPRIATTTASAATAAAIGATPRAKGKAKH

Key:
[1] = target: T1, full-length human occludin (hOCLN-wt) (human (endogenous in H9 hESC)) (UniProt Q16625); experiment: co-IP; endogenous proteins from hESC lysates; IP with anti-NuMA, anti-Ran or C-terminus anti-OCLN antibody, immunoblot; input about 3% of total lysate; non-specific IgG as negative control
T1 sequence: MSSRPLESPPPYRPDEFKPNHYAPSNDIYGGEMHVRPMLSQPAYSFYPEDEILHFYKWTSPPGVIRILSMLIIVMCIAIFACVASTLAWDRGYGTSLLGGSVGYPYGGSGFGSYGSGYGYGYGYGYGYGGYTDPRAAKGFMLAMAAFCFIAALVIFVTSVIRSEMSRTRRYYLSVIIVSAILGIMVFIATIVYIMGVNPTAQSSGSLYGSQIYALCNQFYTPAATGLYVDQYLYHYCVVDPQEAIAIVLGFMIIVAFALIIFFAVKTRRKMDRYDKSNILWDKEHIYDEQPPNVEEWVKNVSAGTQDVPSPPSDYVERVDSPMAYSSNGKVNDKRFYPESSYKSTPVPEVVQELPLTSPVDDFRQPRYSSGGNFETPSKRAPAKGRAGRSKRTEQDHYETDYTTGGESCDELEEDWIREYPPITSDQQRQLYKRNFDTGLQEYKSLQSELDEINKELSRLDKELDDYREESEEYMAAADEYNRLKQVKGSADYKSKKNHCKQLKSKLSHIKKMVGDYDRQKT

[2] = target: NuMA (human (endogenous in H9 hESC)) (UniProt Q14980); experiment: as above

binding [1]: binds
Molecule: NuMA (from UniProt Q14980 1-2115)

binding [2]: binds
B1: full-length human occludin (hOCLN-wt) (protein, UniProt Q16625 1-522)
chain: T1 sequence
